From patent publication US20240158457A1, “INTERLEUKIN-18 RECEPTOR BINDING POLYPEPTIDES AND USES THEREOF” (Medikine, Inc., priority 2022, published 2024)
For part of these data: At least one peptide structure holds a part that was inferred or is arguable (an end, a ring closure or a residue). For part of these data: At least one compound was matched to its structure with a doubt left. Where a SMILES comes first, the peptide text is derived from it. Bridges are numbered along the chain shown (N, C = ends).

What was measured:
IL-18R [1] = target: T1, IL-18R (Homo sapiens, UniProt O95256+Q13478); test: HEK-BLUE IL-18R reporter assay (agonist activity, SEAP); type: cell-based
T1 construct: host or cells: HEK293 (HEK-BLUE IL-18 reporter cell line)
T1 sequence (Q13478 19-541): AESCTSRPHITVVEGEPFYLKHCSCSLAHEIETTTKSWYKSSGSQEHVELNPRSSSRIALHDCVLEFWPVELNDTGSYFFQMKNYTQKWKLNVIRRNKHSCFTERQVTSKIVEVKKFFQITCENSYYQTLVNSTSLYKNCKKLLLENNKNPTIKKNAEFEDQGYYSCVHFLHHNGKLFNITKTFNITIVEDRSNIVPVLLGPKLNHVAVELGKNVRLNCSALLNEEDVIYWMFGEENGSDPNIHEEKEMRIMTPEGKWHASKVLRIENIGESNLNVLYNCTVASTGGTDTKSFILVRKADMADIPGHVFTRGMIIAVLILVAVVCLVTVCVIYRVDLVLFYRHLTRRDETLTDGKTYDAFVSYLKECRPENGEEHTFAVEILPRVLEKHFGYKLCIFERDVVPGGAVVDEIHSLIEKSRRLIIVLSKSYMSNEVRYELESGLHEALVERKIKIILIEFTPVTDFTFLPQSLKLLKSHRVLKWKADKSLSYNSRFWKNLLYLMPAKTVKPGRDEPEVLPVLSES
T1 sequence (O95256 20-599): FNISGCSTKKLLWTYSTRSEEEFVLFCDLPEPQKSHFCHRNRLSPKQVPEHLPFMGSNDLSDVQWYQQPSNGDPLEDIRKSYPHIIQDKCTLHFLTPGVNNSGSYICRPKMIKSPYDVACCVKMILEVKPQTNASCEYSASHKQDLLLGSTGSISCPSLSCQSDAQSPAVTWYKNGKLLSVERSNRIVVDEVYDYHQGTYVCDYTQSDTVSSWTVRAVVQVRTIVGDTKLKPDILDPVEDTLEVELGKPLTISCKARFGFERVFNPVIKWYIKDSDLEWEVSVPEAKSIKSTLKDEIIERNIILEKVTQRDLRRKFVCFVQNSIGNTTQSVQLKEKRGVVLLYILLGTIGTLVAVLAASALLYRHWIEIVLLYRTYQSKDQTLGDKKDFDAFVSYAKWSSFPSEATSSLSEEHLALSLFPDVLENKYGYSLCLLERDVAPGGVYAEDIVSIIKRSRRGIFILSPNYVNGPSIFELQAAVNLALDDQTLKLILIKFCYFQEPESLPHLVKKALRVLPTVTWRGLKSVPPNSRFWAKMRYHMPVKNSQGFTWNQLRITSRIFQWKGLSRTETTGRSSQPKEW

[2] = target: T2, IL-18 Binding Protein (IL-18BP) (Homo sapiens, UniProt O95998); test: Direct binding ELISA for IL-18BP; conditions: C-terminally biotinylated forms of peptides; at up to 100 nM IL-18BP
T2 construct: purchased ACROBiosystems (Acro); R&D Systems ILP-H5253; 119-BP
T2 sequence (O95998 31-194): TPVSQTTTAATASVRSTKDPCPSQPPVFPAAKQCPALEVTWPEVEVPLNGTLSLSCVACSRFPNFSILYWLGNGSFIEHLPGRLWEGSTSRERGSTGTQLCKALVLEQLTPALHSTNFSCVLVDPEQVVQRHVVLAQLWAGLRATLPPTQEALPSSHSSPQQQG
Method: Binding of synthetic monomer peptides to IL-18 Binding Protein (IL-18BP) was measured using a direct binding ELISA. Briefly, 96-well ELISA plates were coated with NeutrAvidin (NA) at 5 μg per well in PBS, washed, then blocked with PBS containing 1% BSA. Wells were washed and representative peptides, synthesized with a C-terminal biotin were diluted to 300 nM in assay buffer and added to the NA coated wells. Wells were washed and serial dilutions starting at 100 nM of IL-18R subunits, IL-18BP from either of two sources (Acro #ILP-H5253 and R&D #119-BP), and control IgG Fc fusions) were added to the wells and incubated for 1 hr at 4° C. Then plates were washed and goat anti-human IgG Fc-HRP (Southern Biotech #2048-05) detection antibody was added for 1 hr. Wells were developed with TMB for 5-15 min and the enzyme reaction was stopped with a H2SO4 solution.

IL-18R [3] = target: T1, IL-18R; test: HEK-BLUE IL18R reporter assay for IL-18BP/IL-18 interaction (agonist activity with and without IL-18BP); type: cell-based; conditions: FIG. 22A
Source text: IL-18 is negatively regulated by a decoy receptor called IL-18 binding protein (IL-18BP), a secreted antagonist that binds IL-18 with extremely high affinity. HEK-BLUE™ IL-18 reporter cell line (InvivoGen #hkb-hmil 18, California, USA) was used to determine the impact of heterodimer peptides composed of IL-18Ra and IL-18Rb binding peptides on the IL-18BP/IL-18 interaction. The IL-18 Reporter assay, as described in detail in Example 2, was used to investigate this interaction with the following modifications.
A serial dilution (7-point, 10-fold) of IL-18BP Fc fusion (Acro #ILP-H5253) starting at 2 μM (20-fold final concentration) was prepared in test medium in a v-bottom polypropylene 96-well plate. Human recombinant IL-18 (R&D Systems #9124-IL-050/CF) and a representative peptide agonist were prepared at 30 pM and 600 nM respectively (both at 20-fold final concentration and at approximately their respective EC70s). […] Absorbance signal at 630 nm was then measured on a plate reader. Half maximal inhibition concentration (IC50) was calculated based on a variable slope and four parameter analysis using GraphPad Prism software. When no inhibition was measured the data points were connected without a curve fit. Absorbance readings were converted to percent total of signal span, for IL-18 and peptide agonist respectively, and graphed as NF-κB reporter activity (% max).

[4] = Example 1, read-out: potency (EC50)
[5] = HEK-BLUE IL-18 reporter cells, 20 hr, read-out: potency

CC[C@H](C)[C@H](NC(=O)[C@H](C)NC(=O)[C@@H]1CCCN1C(=O)[C@H](C)NC(=O)[C@@H]1CCCN1C(=O)[C@H](C)NC(=O)[C@@H]1CCCN1C(=O)[C@H](C)NC(=O)[C@@H]1CCCN1C(=O)[C@H](C)NC(=O)[C@@H]1CCCN1C(=O)[C@H](C)NC(=O)[C@@H]1CCCN1C(=O)[C@H](C)NC(=O)[C@@H]1CCCN1C(=O)[C@H](C)NC(=O)[C@@H]1CCCN1C(=O)CCc1cn(CC[C@H](NC(=O)[C@@H]2CSSC[C@H](NC(=O)CNC(=O)CN)C(=O)N3CCC[C@H]3C(=O)N[C@@H](CC(N)=O)C(=O)N[C@@H](Cc3c[nH]c4ccccc34)C(=O)N[C@@H](CC(C)C)C(=O)N[C@@H](CO)C(=O)N[C@@H](CC(=O)O)C(=O)N[C@@H](Cc3c[nH]cn3)C(=O)N[C@@H](CC(C)C)C(=O)N[C@@H](CO)C(=O)N[C@@H](CCC(=O)O)C(=O)N[C@@H]([C@@H](C)CC)C(=O)N[C@@H](Cc3c[nH]c4ccccc34)C(=O)N2)C(N)=O)nn1)C(=O)N[C@H]1CSSC[C@@H](C(=O)N[C@H](C(=O)NCC(=O)NCC(N)=O)[C@@H](C)O)NC(=O)[C@H](CCSC)NC(=O)[C@H](CC(C)C)NC(=O)[C@H](CCC(=O)O)NC(=O)[C@H](CC(=O)O)NC(=O)[C@H](CC(C)C)NC(=O)[C@H](Cc2ccc(O)cc2)NC(=O)[C@H](Cc2c[nH]cn2)NC(=O)[C@H](Cc2ccccc2)NC(=O)[C@@H]2CCCN2C(=O)[C@H](C(C)C)NC(=O)[C@H](Cc2c[nH]c3ccccc23)NC1=O [Dimer 1]
EC50 (IL-18R [1]; [4]): < 1000 nM | EC50 (IL-18R [1]; [5]): < 1000 nM

CC[C@H](C)[C@H](NC(=O)[C@@H]1CSSC[C@H](NC(=O)[C@H](CCC(=O)O)NC(=O)[C@H](Cc2ccccc2)NC(=O)[C@H](Cc2ccccc2)NC(=O)[C@H](C)NC(=O)[C@@H]2CCCN2C(=O)[C@H](C)NC(=O)[C@@H]2CCCN2C(=O)[C@H](C)NC(=O)[C@@H]2CCCN2C(=O)[C@H](C)NC(=O)[C@@H]2CCCN2C(=O)[C@H](C)NC(=O)[C@@H]2CCCN2C(=O)[C@H](C)NC(=O)[C@@H]2CCCN2C(=O)[C@H](C)NC(=O)[C@@H]2CCCN2C(=O)[C@H](C)NC(=O)[C@@H]2CCCN2C(=O)CCc2cn(CC[C@H](NC(=O)[C@H](CC(C)C)NC(=O)[C@@H]3CSSC[C@H](NC(=O)[C@H](CC(C)C)NC(=O)CNC(=O)CN)C(=O)N[C@@H](Cc4c[nH]c5ccccc45)C(=O)N[C@@H](Cc4ccc(O)cc4)C(=O)N[C@@H](Cc4ccccc4)C(=O)NCC(=O)NCC(=O)N[C@@H]([C@@H](C)O)C(=O)N[C@@H](C(C)C)C(=O)N[C@@H](CCCNC(=N)N)C(=O)NCC(=O)N4CCC[C@H]4C(=O)N3)C(N)=O)nn2)C(=O)N[C@@H](Cc2ccccc2)C(=O)N[C@@H](Cc2ccc(O)cc2)C(=O)N[C@@H](CO)C(=O)N2CCC[C@H]2C(=O)NCC(=O)N[C@@H](Cc2c[nH]cn2)C(=O)N[C@@H](CCC(=O)O)C(=O)N[C@@H](Cc2c[nH]c3ccccc23)C(=O)N1)C(=O)N1CCC[C@H]1C(=O)N[C@@H](CO)C(=O)NCC(=O)NCC(N)=O [Dimer 3]
EC50 (IL-18R [1]; [4]): < 10 nM | EC50 (IL-18R [1]; [5]): < 30 nM

CC[C@H](C)[C@H](NC(=O)[C@@H]1CSSC[C@H](NC(=O)[C@H](CCC(=O)O)NC(=O)[C@H](Cc2ccccc2)NC(=O)[C@H](Cc2ccccc2)NC(=O)CNC(=O)CN)C(=O)N[C@@H](Cc2ccccc2)C(=O)N[C@@H](Cc2ccc(O)cc2)C(=O)N[C@@H](CO)C(=O)N2CCC[C@H]2C(=O)NCC(=O)N[C@@H](Cc2c[nH]cn2)C(=O)N[C@@H](CCC(=O)O)C(=O)N[C@@H](Cc2c[nH]c3ccccc23)C(=O)N1)C(=O)N1CCC[C@H]1C(=O)N[C@@H](CO)C(=O)NCC(=O)NCC(=O)O [Dimer 7C06] (H-GGFFECFYSPGHEWCIPSGG-OH; disulfide 6-15 (inferred); N-terminus and C-terminus assumed)
binding to IL-18BP [2]: did not exhibit binding

CC[C@H](C)[C@H](NC(=O)[C@@H]1CSSC[C@H](NC(=O)[C@H](CCC(=O)O)NC(=O)[C@H](Cc2ccccc2)NC(=O)[C@H](Cc2ccccc2)NC(=O)CNC(=O)CNC(=O)[C@H](CO)NC(=O)CNC(=O)CCc2cn(CC[C@H](NC(=O)[C@H](CC(C)C)NC(=O)[C@@H]3CSSC[C@H](NC(=O)[C@H](CC(C)C)NC(=O)CNC(=O)CN)C(=O)N[C@@H](Cc4c[nH]c5ccccc45)C(=O)N[C@@H](Cc4ccc(O)cc4)C(=O)N[C@@H](Cc4ccccc4)C(=O)NCC(=O)NCC(=O)N[C@@H]([C@@H](C)O)C(=O)N[C@@H](C(C)C)C(=O)N[C@@H](CCCNC(=N)N)C(=O)NCC(=O)N4CCC[C@H]4C(=O)N3)C(N)=O)nn2)C(=O)N[C@@H](Cc2ccccc2)C(=O)N[C@@H](Cc2ccc(O)cc2)C(=O)N[C@@H](CO)C(=O)N2CCC[C@H]2C(=O)NCC(=O)N[C@@H](Cc2c[nH]cn2)C(=O)N[C@@H](CCC(=O)O)C(=O)N[C@@H](Cc2c[nH]c3ccccc23)C(=O)N1)C(=O)N1CCC[C@H]1C(=O)N[C@@H](CO)C(=O)NCC(=O)NCC(N)=O [Dimer 10]
EC50 (IL-18R [3]): 28 nM
